Data taken from the supplement of paper PMC3334620.
Over roughly 33,000 sequences, “E-score (-0.5 to 0.5)” has its median near -0.0014; the highest 2% begin near 0.25. The list shows a part of the results.

target: T1, Cad1 (UniProt P24813); test: PBM E-score (8-mer binding enrichment) (E-score (-0.5 to 0.5)); higher = stronger / more preferred TF binding; settings: protein concentration: 100 nM; construct: GST-full length
T1 sequence: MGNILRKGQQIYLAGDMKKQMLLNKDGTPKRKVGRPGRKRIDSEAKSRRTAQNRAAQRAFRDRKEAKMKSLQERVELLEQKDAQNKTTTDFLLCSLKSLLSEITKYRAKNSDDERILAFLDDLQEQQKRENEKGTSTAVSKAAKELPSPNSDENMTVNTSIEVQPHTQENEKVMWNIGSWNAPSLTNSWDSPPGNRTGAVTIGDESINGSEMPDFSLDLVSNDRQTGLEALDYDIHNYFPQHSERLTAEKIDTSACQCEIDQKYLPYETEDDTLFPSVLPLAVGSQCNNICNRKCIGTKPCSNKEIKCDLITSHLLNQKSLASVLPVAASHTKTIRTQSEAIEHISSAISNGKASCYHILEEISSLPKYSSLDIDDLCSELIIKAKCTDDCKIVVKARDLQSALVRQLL
How it was run: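 Detection of bound protein used fluorescent anti-GST, with scans normalised by masliner. The proteins were GST-tagged yeast transcription factors applied at about 100-200 nM to universal all-10-mer Agilent arrays made double-stranded by primer extension. Each ungapped eight-base word, pooled with its reverse complement, was scored with an E-score from the Universal PBM Analysis Suite.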

Sequence | PBM E-score
AACGTAGG | -0.174
GAGCGCTA | 0.212
GCCAGGAA | -0.0329
AGTGACAT | 0.0519
CCAAACAG | -0.12
GAGTAGAC | -0.0718
CAAAGCTC | -0.197
GCTATTTA | 0.028
GAAGCATA | -0.0401
ATGACGGA | -0.0767
AATCATCA | 0.143
ACAGCAGG | -0.079
CATGGAAA | 0.161
GAGTGGGA | -0.0669
CCACGCGG | -0.00784
CCCATTAA | -0.117
AAAAGACA | 0.117
ACGCACTG | -0.0467
ACCGAGAA | 0.0942
CTCCTAAC | -0.149
CTGTTTAC | 0.177
ACTCTGCC | -0.103

A second format for some results above:
Sequence	PBM E-score
CAAAGCTC	-0.197
GCTATTTA	0.028

Later entries.

Sequence | PBM E-score
GTTTGCGA | 0.184
CGCCGAAC | 0.0826
TCACAAGA | 0.0647
ATGCGTAC | 0.09
CGCAGCCA | -0.152
CTACCAGA | 0.0942
ACGACACA | 0.0959
ATAGCTCG | -0.186
GAGTGAGA | -0.0459
ATAGCCAT | -0.0486
AGTTGGGA | -0.00743
CTGATGAA | 0.121
AACCTGTC | -0.089
ATTCGACC | -0.225
CGCGTTCC | 0.132
TGTAATAA | 0.22
GCCTATAC | -0.214
AGATTCCT | -0.114
CCATTTGC | 0.0915
ACGAACCA | 0.194
CAAGTAAG | -0.0761
GCATCTGA | -0.22

Sequence | PBM E-score
AAACGATT | 0.16
CAGCGAGG | -0.108
TGGAACCA | 0.14
GGTCACGA | -0.0986
CGGCAGAA | -0.0241
GCAGTGCC | -0.263
ATATGTCA | 0.232
CAAGGTGA | -0.0619
ATAACCGA | -0.0962
TATCGACA | 0.0374
ACAAGTCT | -0.0582
ATAAGTTC | 0.197
CCCGACGG | 0.0649
TATCGCCA | 0.127
CATCACAA | 0.186
AAAGCCGG | 0.137
AGACATAT | 0.0919
CACTCGTC | -0.0738
GAACTACA | 0.0994
GTGATCCA | -0.0545
GGGAGCCA | -0.276
AGATAGTA | 0.119

Nothing new here: entries from further up.
Sequence | PBM E-score
GCCTATAC | -0.214
AGATTCCT | -0.114
CCATTTGC | 0.0915

The list goes on.

Sequence | PBM E-score
AGCGGCGC | -0.138
CGACATCA | 0.131
GCCCTTAA | -0.124
GAAGGGTC | -0.258
AAAATTAA | 0.209
CTTTCACA | 0.209
AACAAGAG | -0.2
CATGCCAC | -0.0783
GCGGCCTA | -0.195
CTACTCAG | 0.0115
AATGCCTG | -0.149
AGCGGTCC | -0.0253
TACGTGAA | 0.0711
CTAAGGGA | 0.0678
ACGCTCCC | -0.13
AAGCCATA | 0.0516
GAACGGTC | -0.0932
TCTTTTCA | 0.123
GAAGCTTA | -0.00313
AACTGACA | -0.142
